From article PMC10698284
Results are given in words; binding and its absence hold for the method and conditions named. Binding seen in cells or lysates may run through a third protein. These calls come from enrichment with a bait or labelling near it, and not all partners need be listed. Values belong to the binder of their own block, whether it stands above or below them.

Chains of the proteins cited; added tags and fusions are not shown. Lines headed by an entry give the natural chain unless they say otherwise; changes in a name come on top. A line that says so, or that is headed by a name, gives the form on record, which may keep a tag or linker. Residues count along the entry.
FLAG-SLC3A2 WTseq (P08195, residues 66-630): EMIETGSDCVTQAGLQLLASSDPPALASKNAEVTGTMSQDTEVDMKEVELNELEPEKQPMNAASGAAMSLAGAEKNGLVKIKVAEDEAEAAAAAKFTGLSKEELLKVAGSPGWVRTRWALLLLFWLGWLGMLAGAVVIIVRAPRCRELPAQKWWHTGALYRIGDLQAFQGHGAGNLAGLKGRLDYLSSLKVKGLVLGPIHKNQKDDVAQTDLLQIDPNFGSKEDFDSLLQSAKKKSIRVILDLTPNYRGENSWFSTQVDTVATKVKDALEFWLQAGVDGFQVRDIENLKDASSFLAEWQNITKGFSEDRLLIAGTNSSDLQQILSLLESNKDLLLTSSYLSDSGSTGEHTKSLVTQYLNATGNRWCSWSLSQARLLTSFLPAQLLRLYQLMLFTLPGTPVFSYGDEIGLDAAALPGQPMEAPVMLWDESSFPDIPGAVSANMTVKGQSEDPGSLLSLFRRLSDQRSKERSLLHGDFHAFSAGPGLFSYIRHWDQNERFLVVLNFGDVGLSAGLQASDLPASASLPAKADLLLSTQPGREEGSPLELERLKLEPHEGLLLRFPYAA
FLAG-SLC3A2 A273N (P08195, form named): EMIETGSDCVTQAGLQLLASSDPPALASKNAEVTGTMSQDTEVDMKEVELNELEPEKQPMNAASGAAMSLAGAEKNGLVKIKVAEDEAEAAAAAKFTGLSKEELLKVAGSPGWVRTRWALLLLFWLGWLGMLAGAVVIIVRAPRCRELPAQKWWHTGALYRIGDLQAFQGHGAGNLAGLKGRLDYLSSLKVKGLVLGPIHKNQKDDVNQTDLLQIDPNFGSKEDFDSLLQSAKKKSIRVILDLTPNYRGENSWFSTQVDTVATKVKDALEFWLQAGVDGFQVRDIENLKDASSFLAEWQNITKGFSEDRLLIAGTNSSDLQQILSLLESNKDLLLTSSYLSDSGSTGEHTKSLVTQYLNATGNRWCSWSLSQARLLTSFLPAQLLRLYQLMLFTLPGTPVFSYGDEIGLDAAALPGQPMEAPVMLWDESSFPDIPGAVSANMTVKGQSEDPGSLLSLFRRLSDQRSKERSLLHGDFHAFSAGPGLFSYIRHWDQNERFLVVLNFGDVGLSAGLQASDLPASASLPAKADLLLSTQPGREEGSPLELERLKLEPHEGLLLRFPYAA
FLAG-SLC3A2 A273N + D355N (P08195, form named): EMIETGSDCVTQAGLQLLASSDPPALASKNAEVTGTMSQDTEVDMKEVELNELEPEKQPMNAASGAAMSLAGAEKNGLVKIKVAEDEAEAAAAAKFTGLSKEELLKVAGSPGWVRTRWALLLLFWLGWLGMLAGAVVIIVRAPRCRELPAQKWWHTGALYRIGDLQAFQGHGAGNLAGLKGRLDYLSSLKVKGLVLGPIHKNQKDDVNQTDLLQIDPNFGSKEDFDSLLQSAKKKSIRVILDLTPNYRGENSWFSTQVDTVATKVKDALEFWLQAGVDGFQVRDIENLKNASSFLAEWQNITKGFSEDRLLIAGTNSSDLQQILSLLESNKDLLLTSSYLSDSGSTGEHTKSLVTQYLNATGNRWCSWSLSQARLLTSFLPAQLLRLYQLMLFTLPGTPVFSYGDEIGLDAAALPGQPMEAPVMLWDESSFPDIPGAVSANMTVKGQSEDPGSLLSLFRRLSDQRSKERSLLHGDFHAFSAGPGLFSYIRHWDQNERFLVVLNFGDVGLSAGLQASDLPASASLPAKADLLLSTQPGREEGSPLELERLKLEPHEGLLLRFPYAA

Key:
Test in all cases: affinity purification with mass spectrometry; anti-FLAG M2 agarose, 4 h at 4 °C, 1 mg lysate (0.5% NP40, 50 mM HEPES pH 8.0, 100 mM KCl, 1 mM EDTA, 10% glycerol) of HeLa Flp-In T-REx SLC3A2 KO cells with dox-induced FLAG-SLC3A2 WTseq or site variants; on-bead trypsin digest, DDA and SWATH; control: dox-treated SLC3A2 KO cells; in some samples 10 μM fluvastatin or 250 ng/ml swainsonine for the final 24 h
[1] = biological target: FLAG-SLC3A2 WTseq (human) (UniProt P08195)
[2] = biological target: FLAG-SLC3A2 A273N (human) (UniProt P08195)
[3] = biological target: FLAG-SLC3A2 A273N + D355N (human) (UniProt P08195)

binding [1]: binds
B2: SLC25A19 (protein, UniProt Q9HC21 1-320)
chain: MVGYDPKPDGRNNTKFQVAVAGSVSGLVTRALISPFDVIKIRFQLQHERLSRSDPSAKYHGILQASRQILQEEGPTAFWKGHVPAQILSIGYGAVQFLSFEMLTELVHRGSVYDAREFSVHFVCGGLAACMATLTVHPVDVLRTRFAAQGEPKVYNTLRHAVGTMYRSEGPQVFYKGLAPTLIAIFPYAGLQFSCYSSLKHLYKWAIPAEGKKNENLQNLLCGSGAGVISKTLTYPLDLFKKRLQVGGFEHARAAFGQVRRYKGLMDCAKQVLQKEGALGFFKGLSPSLLKAALSTGFMFFSYEFFCNVFHCMNRTASQR

binding [1]: binds
B4: SLC25A22 (protein, UniProt Q9H936 1-323)
chain: MADKQISLPAKLINGGIAGLIGVTCVFPIDLAKTRLQNQQNGQRVYTSMSDCLIKTVRSEGYFGMYRGAAVNLTLVTPEKAIKLAANDFFRHQLSKDGQKLTLLKEMLAGCGAGTCQVIVTTPMEMLKIQLQDAGRIAAQRKILAAQGQLSAQGGAQPSVEAPAAPRPTATQLTRDLLRSRGIAGLYKGLGATLLRDVPFSVVYFPLFANLNQLGRPASEEKSPFYVSFLAGCVAGSAAAVAVNPCDVVKTRLQSLQRGVNEDTYSGILDCARKILRHEGPSAFLKGAYCRALVIAPLFGIAQVVYFLGIAESLLGLLQDPQA

binding [2]: binds | binding [1]: binds
B7: TMX3 (protein, UniProt Q96JJ7 25-454)
chain: KGFVEDLDESFKENRNDDIWLVDFYAPWCGHCKKLEPIWNEVGLEMKSIGSPVKVGKMDATSYSSIASEFGVRGYPTIKLLKGDLAYNYRGPRTKDDIIEFAHRVSGALIRPLPSQQMFEHMQKRHRVFFVYVGGESPLKEKYIDAASELIVYTYFFSASEEVVPEYVTLKEMPAVLVFKDETYFVYDEYEDGDLSSWINRERFQNYLAMDGFLLYELGDTGKLVALAVIDEKNTSVEHTRLKSIIQEVARDYRDLFHRDFQFGHMDGNDYINTLLMDELTVPTVVVLNTSNQQYFLLDRQIKNVEDMVQFINNILDGTVEAQGGDSILQRLKRIVFDAKSTIVSIFKSSPLMGCFLFGLPLGVISIMCYGIYTADTDGGYIEERYEVSKSENENQEQIEESKEQQEPSSGGSVVPTVQEPKDVLEKKKD

binding [1]: binds
B8: SLC25A13 (protein, UniProt Q9UJS0 1-675)
chain: MAAAKVALTKRADPAELRTIFLKYASIEKNGEFFMSPNDFVTRYLNIFGESQPNPKTVELLSGVVDQTKDGLISFQEFVAFESVLCAPDALFMVAFQLFDKAGKGEVTFEDVKQVFGQTTIHQHIPFNWDSEFVQLHFGKERKRHLTYAEFTQFLLEIQLEHAKQAFVQRDNARTGRVTAIDFRDIMVTIRPHVLTPFVEECLVAAAGGTTSHQVSFSYFNGFNSLLNNMELIRKIYSTLAGTRKDVEVTKEEFVLAAQKFGQVTPMEVDILFQLADLYEPRGRMTLADIERIAPLEEGTLPFNLAEAQRQKASGDSARPVLLQVAESAYRFGLGSVAGAVGATAVYPIDLVKTRMQNQRSTGSFVGELMYKNSFDCFKKVLRYEGFFGLYRGLLPQLLGVAPEKAIKLTVNDFVRDKFMHKDGSVPLAAEILAGGCAGGSQVIFTNPLEIVKIRLQVAGEITTGPRVSALSVVRDLGFFGIYKGAKACFLRDIPFSAIYFPCYAHVKASFANEDGQVSPGSLLLAGAIAGMPAASLVTPADVIKTRLQVAARAGQTTYSGVIDCFRKILREEGPKALWKGAGARVFRSSPQFGVTLLTYELLQRWFYIDFGGVKPMGSEPVPKSRINLPAPNPDHVGGYKLAVATFAGIENKFGLYLPLFKPSVSTSKAIGGGP

binding [1]: binds
B9: STT3A (protein, UniProt P46977 1-705)
chain: MTKFGFLRLSYEKQDTLLKLLILSMAAVLSFSTRLFAVLRFESVIHEFDPYFNYRTTRFLAEEGFYKFHNWFDDRAWYPLGRIIGGTIYPGLMITSAAIYHVLHFFHITIDIRNVCVFLAPLFSSFTTIVTYHLTKELKDAGAGLLAAAMIAVVPGYISRSVAGSYDNEGIAIFCMLLTYYMWIKAVKTGSICWAAKCALAYFYMVSSWGGYVFLINLIPLHVLVLMLTGRFSHRIYVAYCTVYCLGTILSMQISFVGFQPVLSSEHMAAFGVFGLCQIHAFVDYLRSKLNPQQFEVLFRSVISLVGFVLLTVGALLMLTGKISPWTGRFYSLLDPSYAKNNIPIIASVSEHQPTTWSSYYFDLQLLVFMFPVGLYYCFSNLSDARIFIIMYGVTSMYFSAVMVRLMLVLAPVMCILSGIGVSQVLSTYMKNLDISRPDKKSKKQQDSTYPIKNEVASGMILVMAFFLITYTFHSTWVTSEAYSSPSIVLSARGGDGSRIIFDDFREAYYWLRHNTPEDAKVMSWWDYGYQITAMANRTILVDNNTWNNTHISRVGQAMASTEEKAYEIMRELDVSYVLVIFGGLTGYSSDDINKFLWMVRIGGSTDTGKHIKENDYYTPTGEFRVDREGSPVLLNCLMYKMCYYRFGQVYTEAKRPPGFDRVRNAEIGNKDFELDVLEEAYTTEHWLVRIYKVKDLDNRGLSRT

The remaining lines, values behind:

B1: DDOST (protein, UniProt P39656 43-456)
chain: SGPRTLVLLDNLNVRETHSLFFRSLKDRGFELTFKTADDPSLSLIKYGEFLYDNLIIFSPSVEDFGGNINVETISAFIDGGGSVLVAASSDIGDPLRELGSECGIEFDEEKTAVIDHHNYDISDLGQHTLIVADTENLLKAPTIVGKSSLNPILFRGVGMVADPDNPLVLDILTGSSTSYSFFPDKPITQYPHAVGKNTLLIAGLQARNNARVIFSGSLDFFSDSFFNSAVQKAAPGSQRYSQTGNYELAVALSRWVFKEEGVLRVGPVSHHRVGETAPPNAYTVTDLVEYSIVIQQLSNGKWVPFDGDDIQLEFVRIDPFVRTFLKKKGGKYSVQFKLPDVYGVFQFKVDYNRLGYTHLYSSTQVSVRPLQHTQYERFIPSAYPYYASAFSMMLGLFIFSIVFLHMKEKEKSD
binding [1]: binds

B3: SLC1A5 (protein, UniProt Q15758 1-541)
chain: MVADPPRDSKGLAAAEPTANGGLALASIEDQGAAAGGYCGSRDQVRRCLRANLLVLLTVVAVVAGVALGLGVSGAGGALALGPERLSAFVFPGELLLRLLRMIILPLVVCSLIGGAASLDPGALGRLGAWALLFFLVTTLLASALGVGLALALQPGAASAAINASVGAAGSAENAPSKEVLDSFLDLARNIFPSNLVSAAFRSYSTTYEERNITGTRVKVPVGQEVEGMNILGLVVFAIVFGVALRKLGPEGELLIRFFNSFNEATMVLVSWIMWYAPVGIMFLVAGKIVEMEDVGLLFARLGKYILCCLLGHAIHGLLVLPLIYFLFTRKNPYRFLWGIVTPLATAFGTSSSSATLPLMMKCVEENNGVAKHISRFILPIGATVNMDGAALFQCVAAVFIAQLSQQSLDFVKIITILVTATASSVGAAGIPAGGVLTLAIILEAVNLPVDHISLILAVDWLVDRSCTVLNVEGDALGAGLLQNYVDRTESRSTEPELIQVKSELPLDPLPVPTEEGNPLLKHYRGPAGDATVASEKESVM
binding [2]: binds | binding [3]: binds | binding [1]: binds

B5: SLC25A11 (protein, UniProt Q02978 1-314)
chain: MAATASAGAGGIDGKPRTSPKSVKFLFGGLAGMGATVFVQPLDLVKNRMQLSGEGAKTREYKTSFHALTSILKAEGLRGIYTGLSAGLLRQATYTTTRLGIYTVLFERLTGADGTPPGFLLKAVIGMTAGATGAFVGTPAEVALIRMTADGRLPADQRRGYKNVFNALIRITREEGVLTLWRGCIPTMARAVVVNAAQLASYSQSKQFLLDSGYFSDNILCHFCASMISGLVTTAASMPVDIAKTRIQNMRMIDGKPEYKNGLDVLFKVVRYEGFFSLWKGFTPYYARLGPHTVLTFIFLEQMNKAYKRLFLSG
binding [1]: binds

B6: RPN1 (protein, UniProt P04843 24-607)
chain: ASSEAPPLINEDVKRTVDLSSHLAKVTAEVVLAHLGGGSTSRATSFLLALEPELEARLAHLGVQVKGEDEEENNLEVRETKIKGKSGRFFTVKLPVALDPGAKISVIVETVYTHVLHPYPTQITQSEKQFVVFEGNHYFYSPYPTKTQTMRVKLASRNVESYTKLGNPTRSEDLLDYGPFRDVPAYSQDTFKVHYENNSPFLTITSMTRVIEVSHWGNIAVEENVDLKHTGAVLKGPFSRYDYQRQPDSGISSIRSFKTILPAAAQDVYYRDEIGNVSTSHLLILDDSVEMEIRPRFPLFGGWKTHYIVGYNLPSYEYLYNLGDQYALKMRFVDHVFDEQVIDSLTVKIILPEGAKNIEIDSPYEISRAPDELHYTYLDTFGRPVIVAYKKNLVEQHIQDIVVHYTFNKVLMLQEPLLVVAAFYILFFTVIIYVRLDFSITKDPAAEARMKVACITEQVLTLVNKRIGLYRHFDETVNRYKQSRDISTLNSGKKSLETEHKALTSEIALLQSRLKTEGSDLCDRVSEMQKLDAQVKELVLKSAVEAERLVAGKLKKDTYIENEKLISGKRQELVTKIDHILDAL
binding [1]: binds

B10: SLC25A6 (protein, UniProt P12236 1-298)
chain: MTEQAISFAKDFLAGGIAAAISKTAVAPIERVKLLLQVQHASKQIAADKQYKGIVDCIVRIPKEQGVLSFWRGNLANVIRYFPTQALNFAFKDKYKQIFLGGVDKHTQFWRYFAGNLASGGAAGATSLCFVYPLDFARTRLAADVGKSGTEREFRGLGDCLVKITKSDGIRGLYQGFSVSVQGIIIYRAAYFGVYDTAKGMLPDPKNTHIVVSWMIAQTVTAVAGVVSYPFDTVRRRMMMQSGRKGADIMYTGTVDCWRKIFRDEGGKAFFKGAWSNVLRGMGGAFVLVLYDELKKVI
binding [1]: binds
